The target of assay [1] is ubiquitin specific peptidase 9 located in the X-chromosome (Usp9x), mouse (mouse (endogenous in embryonic neocortex)) (UniProt P70398). The experiment in a line: co-IP; endogenous proteins from embryonic mouse cortical lysates (E14.5; E12.5 too for β-catenin; Usp9x +/Y and Usp9x -/Y), immunoprecipitated with an antibody to the bait (β-catenin, Axin, APC, β-TrCP, Usp9x or Numb), Pierce co-immunoprecipitation kit, immunoblot; IP lysis buffer 20 mM HEPES pH 7.8, 400 mM KCl, 5 mM EDTA, 0.4% NP40, 10% glycerol, 1 mM DTT.

The chains behind the UniProt entries cited, without tags or fusion partners. Residues count along the entry.
UniProt P70398: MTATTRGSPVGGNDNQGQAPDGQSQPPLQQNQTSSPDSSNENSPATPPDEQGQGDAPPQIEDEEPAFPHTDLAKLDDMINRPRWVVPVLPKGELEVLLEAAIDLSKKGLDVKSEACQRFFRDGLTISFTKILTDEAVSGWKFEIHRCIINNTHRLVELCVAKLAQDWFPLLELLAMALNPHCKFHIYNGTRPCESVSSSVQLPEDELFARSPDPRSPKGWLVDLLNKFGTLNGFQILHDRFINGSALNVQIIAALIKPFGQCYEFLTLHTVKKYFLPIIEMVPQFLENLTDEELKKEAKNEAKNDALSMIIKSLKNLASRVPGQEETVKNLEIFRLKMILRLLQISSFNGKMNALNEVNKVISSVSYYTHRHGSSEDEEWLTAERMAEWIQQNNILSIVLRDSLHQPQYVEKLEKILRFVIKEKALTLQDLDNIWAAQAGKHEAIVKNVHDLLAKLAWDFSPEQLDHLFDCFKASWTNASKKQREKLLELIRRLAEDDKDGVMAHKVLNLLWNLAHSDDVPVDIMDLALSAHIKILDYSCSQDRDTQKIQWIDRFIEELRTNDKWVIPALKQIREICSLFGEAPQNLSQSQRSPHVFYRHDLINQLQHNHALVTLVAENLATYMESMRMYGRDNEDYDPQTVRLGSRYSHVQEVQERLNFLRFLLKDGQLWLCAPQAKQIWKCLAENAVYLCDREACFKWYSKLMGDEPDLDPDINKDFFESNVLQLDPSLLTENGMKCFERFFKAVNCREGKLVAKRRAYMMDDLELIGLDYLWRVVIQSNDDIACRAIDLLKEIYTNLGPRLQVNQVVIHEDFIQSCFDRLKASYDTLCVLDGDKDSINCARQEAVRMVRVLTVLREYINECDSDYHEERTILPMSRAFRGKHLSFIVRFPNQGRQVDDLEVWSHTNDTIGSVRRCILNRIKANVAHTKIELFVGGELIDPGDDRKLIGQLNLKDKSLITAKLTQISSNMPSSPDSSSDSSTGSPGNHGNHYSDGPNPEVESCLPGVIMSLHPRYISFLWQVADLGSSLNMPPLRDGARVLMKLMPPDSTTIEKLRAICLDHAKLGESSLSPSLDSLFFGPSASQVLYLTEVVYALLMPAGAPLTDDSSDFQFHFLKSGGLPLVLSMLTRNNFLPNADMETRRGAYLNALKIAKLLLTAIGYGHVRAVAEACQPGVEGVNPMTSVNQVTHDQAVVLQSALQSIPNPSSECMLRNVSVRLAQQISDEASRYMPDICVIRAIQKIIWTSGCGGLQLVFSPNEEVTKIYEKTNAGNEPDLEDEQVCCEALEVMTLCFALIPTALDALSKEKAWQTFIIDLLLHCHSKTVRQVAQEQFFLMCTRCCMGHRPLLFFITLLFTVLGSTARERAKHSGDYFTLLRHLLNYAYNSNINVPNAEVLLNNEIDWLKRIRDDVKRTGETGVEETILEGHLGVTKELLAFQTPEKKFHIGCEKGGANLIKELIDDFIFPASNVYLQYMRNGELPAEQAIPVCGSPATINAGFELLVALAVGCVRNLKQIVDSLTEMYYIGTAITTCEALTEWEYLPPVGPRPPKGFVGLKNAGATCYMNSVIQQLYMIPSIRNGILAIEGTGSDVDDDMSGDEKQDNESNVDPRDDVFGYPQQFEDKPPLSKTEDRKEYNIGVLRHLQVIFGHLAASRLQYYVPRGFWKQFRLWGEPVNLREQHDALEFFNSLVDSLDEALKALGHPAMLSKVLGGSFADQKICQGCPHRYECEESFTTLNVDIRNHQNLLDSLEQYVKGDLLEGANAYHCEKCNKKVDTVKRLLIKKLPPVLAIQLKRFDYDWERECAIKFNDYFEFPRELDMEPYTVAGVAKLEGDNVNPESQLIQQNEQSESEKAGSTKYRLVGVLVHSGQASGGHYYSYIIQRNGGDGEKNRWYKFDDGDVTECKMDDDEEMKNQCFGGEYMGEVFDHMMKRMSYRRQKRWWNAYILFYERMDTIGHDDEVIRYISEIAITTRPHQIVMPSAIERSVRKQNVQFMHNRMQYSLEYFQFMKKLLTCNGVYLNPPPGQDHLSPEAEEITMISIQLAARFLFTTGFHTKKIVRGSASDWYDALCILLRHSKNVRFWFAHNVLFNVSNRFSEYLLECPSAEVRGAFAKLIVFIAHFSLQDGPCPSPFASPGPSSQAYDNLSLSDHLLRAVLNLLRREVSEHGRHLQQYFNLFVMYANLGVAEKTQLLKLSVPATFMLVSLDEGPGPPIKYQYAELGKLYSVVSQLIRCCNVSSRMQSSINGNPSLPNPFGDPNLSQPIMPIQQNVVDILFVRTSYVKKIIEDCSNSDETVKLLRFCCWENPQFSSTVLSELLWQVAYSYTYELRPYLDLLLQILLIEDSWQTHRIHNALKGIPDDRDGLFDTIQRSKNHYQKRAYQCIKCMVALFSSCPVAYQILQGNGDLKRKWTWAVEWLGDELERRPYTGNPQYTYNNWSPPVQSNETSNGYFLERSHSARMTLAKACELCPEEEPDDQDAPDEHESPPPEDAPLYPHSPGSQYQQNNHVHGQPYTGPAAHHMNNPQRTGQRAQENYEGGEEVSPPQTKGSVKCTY
UniProt Q9QZS3: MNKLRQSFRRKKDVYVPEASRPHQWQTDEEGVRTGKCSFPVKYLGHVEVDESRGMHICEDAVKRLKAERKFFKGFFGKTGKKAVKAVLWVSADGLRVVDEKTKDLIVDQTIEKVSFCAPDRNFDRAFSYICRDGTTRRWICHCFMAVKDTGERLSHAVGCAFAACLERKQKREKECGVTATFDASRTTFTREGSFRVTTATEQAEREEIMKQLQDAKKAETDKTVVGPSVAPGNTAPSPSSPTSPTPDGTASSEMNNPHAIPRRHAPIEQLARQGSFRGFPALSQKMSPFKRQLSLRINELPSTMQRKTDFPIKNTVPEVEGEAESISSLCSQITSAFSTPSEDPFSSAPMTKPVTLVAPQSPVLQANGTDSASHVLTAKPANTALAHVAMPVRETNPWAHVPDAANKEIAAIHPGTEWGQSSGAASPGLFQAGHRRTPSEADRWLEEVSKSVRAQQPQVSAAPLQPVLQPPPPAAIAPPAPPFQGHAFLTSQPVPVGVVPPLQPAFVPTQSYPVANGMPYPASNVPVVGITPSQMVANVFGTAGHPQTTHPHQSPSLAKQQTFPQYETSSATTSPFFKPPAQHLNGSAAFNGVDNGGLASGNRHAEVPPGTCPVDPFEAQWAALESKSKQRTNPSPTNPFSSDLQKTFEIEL
UniProt Q02248: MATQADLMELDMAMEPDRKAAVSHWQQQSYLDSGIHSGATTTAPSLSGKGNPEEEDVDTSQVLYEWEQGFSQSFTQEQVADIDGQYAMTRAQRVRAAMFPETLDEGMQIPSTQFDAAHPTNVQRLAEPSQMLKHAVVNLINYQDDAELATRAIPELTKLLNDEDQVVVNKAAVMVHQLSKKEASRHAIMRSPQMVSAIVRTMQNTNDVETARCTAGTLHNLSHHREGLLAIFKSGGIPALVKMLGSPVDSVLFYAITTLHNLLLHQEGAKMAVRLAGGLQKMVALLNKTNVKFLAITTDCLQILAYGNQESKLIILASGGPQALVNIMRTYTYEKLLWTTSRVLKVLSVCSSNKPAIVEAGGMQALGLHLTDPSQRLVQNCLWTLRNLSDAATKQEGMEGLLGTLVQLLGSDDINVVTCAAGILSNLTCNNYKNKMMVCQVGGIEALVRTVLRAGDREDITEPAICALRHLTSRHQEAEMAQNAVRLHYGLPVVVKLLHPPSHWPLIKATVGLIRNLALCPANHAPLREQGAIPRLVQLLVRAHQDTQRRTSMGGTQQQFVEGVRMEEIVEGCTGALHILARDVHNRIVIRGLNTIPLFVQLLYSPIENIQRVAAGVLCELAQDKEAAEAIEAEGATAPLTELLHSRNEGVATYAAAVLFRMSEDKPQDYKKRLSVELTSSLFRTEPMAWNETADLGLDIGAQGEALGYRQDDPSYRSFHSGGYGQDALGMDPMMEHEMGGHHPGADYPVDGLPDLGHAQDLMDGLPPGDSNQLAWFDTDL
UniProt P15116, residues 160-906: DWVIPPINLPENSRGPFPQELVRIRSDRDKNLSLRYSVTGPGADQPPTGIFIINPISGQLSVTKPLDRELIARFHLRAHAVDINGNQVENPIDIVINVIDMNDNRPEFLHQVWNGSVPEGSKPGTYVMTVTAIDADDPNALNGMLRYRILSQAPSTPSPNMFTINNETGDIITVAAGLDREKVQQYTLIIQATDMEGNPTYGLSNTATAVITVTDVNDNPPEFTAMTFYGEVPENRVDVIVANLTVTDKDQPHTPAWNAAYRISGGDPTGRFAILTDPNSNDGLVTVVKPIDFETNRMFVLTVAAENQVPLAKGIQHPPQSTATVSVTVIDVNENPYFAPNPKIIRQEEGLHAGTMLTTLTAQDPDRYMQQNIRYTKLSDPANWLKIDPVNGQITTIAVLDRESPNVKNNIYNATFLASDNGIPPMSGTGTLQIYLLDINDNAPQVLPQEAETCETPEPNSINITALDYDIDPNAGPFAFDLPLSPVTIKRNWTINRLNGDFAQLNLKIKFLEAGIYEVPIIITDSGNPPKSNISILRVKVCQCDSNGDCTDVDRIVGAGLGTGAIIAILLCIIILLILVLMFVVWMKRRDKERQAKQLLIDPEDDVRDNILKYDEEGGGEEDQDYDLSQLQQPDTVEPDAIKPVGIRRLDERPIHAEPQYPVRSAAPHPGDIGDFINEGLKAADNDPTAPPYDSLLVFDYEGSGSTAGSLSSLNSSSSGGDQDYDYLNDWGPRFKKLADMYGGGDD
UniProt Q8C863: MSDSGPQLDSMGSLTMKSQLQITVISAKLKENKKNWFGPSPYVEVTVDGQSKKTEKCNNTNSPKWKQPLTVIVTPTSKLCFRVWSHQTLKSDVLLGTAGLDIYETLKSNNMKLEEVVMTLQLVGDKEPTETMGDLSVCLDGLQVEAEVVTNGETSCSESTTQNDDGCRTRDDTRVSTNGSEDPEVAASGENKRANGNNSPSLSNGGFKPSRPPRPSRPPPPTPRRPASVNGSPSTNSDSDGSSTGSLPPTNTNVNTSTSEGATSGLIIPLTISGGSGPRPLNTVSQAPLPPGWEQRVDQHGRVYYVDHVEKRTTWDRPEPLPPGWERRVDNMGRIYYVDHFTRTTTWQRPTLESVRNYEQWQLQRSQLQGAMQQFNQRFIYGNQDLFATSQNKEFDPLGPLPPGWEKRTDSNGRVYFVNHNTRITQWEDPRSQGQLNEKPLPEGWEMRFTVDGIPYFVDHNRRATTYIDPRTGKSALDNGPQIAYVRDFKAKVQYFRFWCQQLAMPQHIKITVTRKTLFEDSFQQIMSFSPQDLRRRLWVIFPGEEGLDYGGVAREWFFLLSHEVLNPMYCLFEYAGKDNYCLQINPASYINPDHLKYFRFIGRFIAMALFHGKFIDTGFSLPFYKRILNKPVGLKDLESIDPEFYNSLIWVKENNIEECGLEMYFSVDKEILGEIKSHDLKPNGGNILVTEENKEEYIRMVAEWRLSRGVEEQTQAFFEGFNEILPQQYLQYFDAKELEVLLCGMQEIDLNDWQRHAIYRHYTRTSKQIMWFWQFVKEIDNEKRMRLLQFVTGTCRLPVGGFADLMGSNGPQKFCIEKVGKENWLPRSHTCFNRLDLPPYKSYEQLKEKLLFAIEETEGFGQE

Assay [2] concerns the target Numb, mouse (mouse (endogenous in embryonic neocortex)) (UniProt Q9QZS3). The description is as above.
Assay [3] concerns the target β-catenin, mouse (mouse (endogenous in embryonic neocortex)) (UniProt Q02248). Described as above.
For assay [4], the target named is APC, human (human (endogenous in HEK293)) (UniProt P25054). Description: co-IP; endogenous proteins from HEK293 cell lysates, immunoprecipitated with Axin antibody or APC antibody, immunoblot. For orientation: Immunoblotting shows a protein as a band on a membrane.
Assay [5] deals with N-cadherin, mouse (mouse (endogenous in embryonic neocortex)) (UniProt P15116). Description: co-IP; endogenous proteins from embryonic mouse cortical lysates (E14.5; E12.5 too for β-catenin; Usp9x +/Y and Usp9x -/Y), immunoprecipitated with an antibody to the bait (β-catenin, Axin, APC, β-TrCP, Usp9x or Numb), Pierce co-immunoprecipitation kit, immunoblot; IP lysis buffer 20 mM HEPES pH 7.8, 400 mM KCl, 5 mM EDTA, 0.4% NP40, 10% glycerol, 1 mM DTT.

No constants are given. Whether binding was seen depends on the method and setting. In cells and extracts the contact can be indirect. Some results given as binding are weak or reduced against the parent protein; the word gives no strength.

“Itch, mouse (from UniProt Q8C863 1-864) (enzyme)”: the binding result in assay [1] and in assay [2] was “binds” throughout.

Regarding “N-cadherin, mouse (from UniProt P15116 160-906)”, the binding entry in assay [3] is recorded as “binds”.

As to Numb, mouse (from UniProt Q9QZS3 1-653), the binding result in assay [1] is given as “binds”.

Turning to “USP9X, human (from UniProt Q93008 1-2554) (enzyme)”, the binding entry in assay [4] was “binds”.

For “ubiquitin specific peptidase 9 located in the X-chromosome (Usp9x), mouse (from UniProt P70398 1-2559) (enzyme)”, the binding entry in assay [5], in assay [2] and in assay [3] was “binds” each time.

These data come from paper PMC5556043.
